Laboratory results from US20160046678A1 (ZYNGENIA, published 2016).
No constants are given. Whether binding was seen depends on the method and setting. Some binding calls cover weakened binding; strength is not graded here.

Protein sequences, listed by entry. Tags and fused reporters are not part of them. Residues count along the entry.
UniProt P08069, residues 31-932: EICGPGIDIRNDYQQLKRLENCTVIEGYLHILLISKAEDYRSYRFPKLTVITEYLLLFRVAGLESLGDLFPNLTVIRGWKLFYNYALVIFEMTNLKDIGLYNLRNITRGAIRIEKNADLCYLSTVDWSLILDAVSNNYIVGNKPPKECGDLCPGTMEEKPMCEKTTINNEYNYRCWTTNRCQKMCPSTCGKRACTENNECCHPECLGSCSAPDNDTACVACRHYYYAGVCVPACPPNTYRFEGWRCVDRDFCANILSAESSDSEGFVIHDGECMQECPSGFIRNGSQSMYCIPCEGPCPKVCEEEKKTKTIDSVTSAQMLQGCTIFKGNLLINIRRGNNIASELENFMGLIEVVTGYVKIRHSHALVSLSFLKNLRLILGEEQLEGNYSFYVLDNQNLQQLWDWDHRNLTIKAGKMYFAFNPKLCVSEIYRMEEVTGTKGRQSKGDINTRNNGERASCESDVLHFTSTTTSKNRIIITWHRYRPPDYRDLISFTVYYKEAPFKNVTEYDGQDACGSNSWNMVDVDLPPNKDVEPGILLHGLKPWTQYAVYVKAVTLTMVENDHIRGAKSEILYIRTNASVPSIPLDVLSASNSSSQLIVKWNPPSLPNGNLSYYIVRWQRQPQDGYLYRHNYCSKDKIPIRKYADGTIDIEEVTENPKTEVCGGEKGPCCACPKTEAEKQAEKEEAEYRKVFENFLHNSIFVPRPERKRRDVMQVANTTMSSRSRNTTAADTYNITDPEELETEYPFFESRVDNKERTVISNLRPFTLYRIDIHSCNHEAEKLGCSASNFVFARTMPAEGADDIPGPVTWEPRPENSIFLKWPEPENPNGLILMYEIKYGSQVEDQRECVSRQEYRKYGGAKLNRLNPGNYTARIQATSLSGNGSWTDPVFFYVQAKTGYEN

These binders were tested against IGF1R (UniProt P08069) (assay: MRD identification, Example 48).

Row | binding | Binder
1 | binds | GSYCAPDWHNCFGQAGQGSRITPSDLCKEFPELCF [IGF2040]
2 | binds | WCEISTTFCNGQAGQGGGGGGSQCQLLHMFCH [IGF42]
3 | binds | WCQIQAFHCRGQAGQGGGSAGGGSSCNILQLMCS [IGF54]
4 | binds | FGQLCDQQVETMIECFERL [IGF2026]
5 | binds | FECVLWNFVCK [IGF55]
6 | binds | FYDWFDMHVK [IGF68]
7 | binds | LCYEFHELCF [IGF52]
8 | binds | LQQICDPEHVTFYQCMTLL [IGF2029]
9 | binds | TAWCHAAGLTFTQCLLWL [IGF2019]
10 | binds | LCLEFHELCF [IGF32]
11 | binds | IPLLCLEFPVLCFENE [IGF2041]
12 | binds | LCWEFPVLCF [IGF39]
13 | binds | LCDEFKELCF [IGF24]
14 | binds | GLDSCQQAYFYQFFCEVFR [IGF2013]
15 | binds | LCAEFPVLCF [IGF56]
16 | binds | EDLGCVCLTFYECMIAL [IGF2033]
17 | binds | QSLTCNDFTDWQSLCRC [IGF2030]
18 | binds | FYEWFTEQVN [IGF74]
19 | binds | LCMEFKELCF [IGF29]
20 | binds | SLEHLCQTRDGFYELMCTLAL [IGF2042]
21 | binds | LCLEFRELCF [IGF44]
22 | binds | DLFDCQGLTFYQCLAAL [IGF2027]
23 | binds | LCEEFIELCF [IGF40]
24 | binds | LCQEFAELCF [IGF45]

Row | binding | Binder
25 | binds | WKEWCVDSDFYTQLCMLAW [IGF2025]
26 | binds | LCEEFPVLCF [IGF30]
27 | binds | FYGWFEEQIL [IGF61]
28 | binds | LCDEFVELCF [IGF22]
29 | binds | FYDWFAEQVI [IGF73]
30 | binds | PREACHDYDVVLHQLCMYFV [IGF2031]
31 | binds | EDLGCMYLTFDECMMWL [IGF2023]
32 | binds | VSALCEDLEFYECILAL [IGF2016]
33 | binds | LCAEFPELCF [IGF25]
34 | binds | LCLEFEELCF [IGF48]
35 | binds | MDQFHWALLG [IGF10]
36 | binds | RCLANSYHCSGQAGQGSATGGSSRITPSDLCKEFPELCF [IGF2038]
37 | binds | LCQEFKELCF [IGF46]
38 | binds | LCTEFKELCF [IGF57]
39 | binds | LCYEFEELCF [IGF49]
40 | binds | LCQEFIELCF [IGF31]
41 | binds | LCHEFEELCF [IGF51]
42 | binds | EYKVCTSNDTFHWGICALLK [IGF2022]
43 | binds | FYEWFEAQVM [IGF72]
44 | binds | LCMEFQELCF [IGF50]
45 | binds | MSYTCEDFDLPCELCLSLH [IGF2012]
46 | binds | ICHIFWQTCNGQAGQGGGSGGSKCDILEMMCN [IGF27]
47 | binds | DSGFYMGLHK [IGF3]
48 | binds | SKDPVCKTKHQFYQMLCTLAF [IGF2043]

Row | binding | Binder
49 | binds | EDLGCMYLTFYECMIWL [IGF2015]
50 | binds | LCDEFQELCF [IGF53]
51 | binds | GFHHAYYKYRGQAGQGSATGGSSRITPSDLCKEFPELCF [IGF2036]
52 | binds | LCFEFVELCF [IGF35]
53 | binds | LCLEFVELCF [IGF38]
54 | binds | FYEWFEEQLI [IGF66]
55 | binds | LCQEFSELCF [IGF33]
56 | binds | FYEWFEAQIM [IGF67]
57 | binds | CEEWCVDSDFYTQLCMLAW [IGF2020]
58 | binds | IPGLCLEFPELCFHQW [IGF2034]
59 | binds | SFYDMIELLIGQAGQGGGSGGGGGGSTIHFAQEEHP [IGF69]
60 | binds | FYEQLEKLVY [IGF64]
61 | binds | GISECEGLTFYECMAAL [IGF2021]
62 | binds | DVRECEGLTFYECMAAL [IGF2017]
63 | binds | LCEEFAELCF [IGF34]
64 | binds | LCEEFHELCF [IGF23]
65 | binds | LCQEFHELCF [IGF21]
66 | binds | LCQEFNELCF [IGF59]
67 | binds | LCSEFQVLCF [IGF36]
68 | binds | VDMQCQVHGMTFYQCLMRL [IGF2014]
69 | binds | LCMEFPELCF [IGF28]
70 | binds | LCWEGYKWFYDQIKPD [IGF2035]
71 | binds | LCMEFEQLCF [IGF43]
72 | binds | AMTLDEWIRMRGQAGGSWVDPAFWGDF [IGF60]
